Results of single-concentration screens

Source: ChEMBL document CHEMBL3988442, “University of Dundee, Small-Polar-MMV Screening Library” (2021).

Each number is a percent effect as filed.
The controls that fix the scale are not given in the record; negative values are as filed.
The compounds are a random part of those screened.
Two or more numbers in one place are separate tests of the same structure; such repeats can differ widely.

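Phenotypic screen: M. tuberculosis growth, glucose 7H9 medium, 3 days; the read-out is not stated. Tested at 50 µM. Higher reads as more growth inhibition (inferred: compounds with an IC50 in retests scored well above the rest). Size under these conditions: about 69,000 compounds, about 760 of them at 50% or above in at least one test.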

Cc1cccc(N(C)S(=O)(=O)c2cc(C(=O)O)cs2)c1 read 13.52%. CCc1nnsc1C(=O)N1CCOC(c2nc(C(C)C)n[nH]2)C1 (stereo not drawn) gave 4.445%. With CC(O)CN1CCN(C(=O)c2ccnc(N(C)C)c2)CC1 (stereo not drawn) the screen gave -3.1% and -16.03%. CN(C)CC(=O)N1CCCC1c1cncc(Oc2ccc(F)cc2)n1 (stereo not drawn) gave -23.38%. Cc1ccc(S(=O)(=O)NCc2cccc(C(=O)N3CCCC3)c2)cc1F gave -16.85%. Result for Cc1occc1C(=O)N1CCCN(Cc2cnn(C(C)C)c2)CC1 was -8.222%. Result for O=C(NCCNC(=O)c1ccc(Br)cc1)c1ccc(O)cc1 was 5.182%. Cc1ccc(OCCSCCn2nc3ccccn3c2=O)cc1 read -0.2134% and 17.33%.

O=C(O)C(F)(F)F.[H][C@@]12COC[C@]1(COCc1csc(C)n1)CN(Cc1ccoc1)C2 read 13.33%. With O=C(Nc1cccnc1N1CCSCC1)c1ccc2c(c1)CCC2 the screen gave -0.7691%. Result for Cc1cnn(CCNc2ncnc3c2CCN(CC2CCOC2)CC3)c1 (stereo not drawn) was 6.711%. With CS(=O)(=O)NC1CCN(C(=O)NCc2ccccn2)CC1 the screen gave -20%. With COCCOc1ccc(S(=O)(=O)Nc2cccnc2O)cc1C the screen gave 28.77%. For Cc1cc(S(=O)(=O)N2CCCc3ccc(F)cc32)sc1C(=O)O the result was 21.6%. With Cc1nc(N(C)C)nc2c1COCC21CCN(CC2CC2)C1.O=C(O)C(F)(F)F (stereo not drawn) the screen gave 12.55%. With CCOc1ccc(S(=O)(=O)NCCc2ccc(N(C)C)cc2)cc1F the screen gave 4.826% and -11.52%.

Cc1ccc(NC(=O)Nc2c(O)oc3ccccc3c2=O)cc1C gave -28.12%. For CC(C(=O)NC(N)=O)N1CCN(c2ccc(C#N)cc2F)CC1 (stereo not drawn) the result was -12.19%. Cn1ccnc1CN1CCCC1Cn1cccn1 (stereo not drawn) read 8.527%. CCOCCN1CCN(Cc2csc(-c3cnn(C)c3)n2)CC1 gave -4.789%. For COCC1CN(S(=O)(=O)N(C)C)Cc2cnn(CC3CCCC3)c21.O=C(O)C(F)(F)F (stereo not drawn) the result was 13.84% and 1.855%. COCCNC(=O)c1ccc2c(=O)n3c(nc2c1)CCCCCC3 read -49.44%. O=C(CSc1nccc(-c2ccc3c(c2)OCO3)n1)N1CCOCC1 gave -15.96%. With CC(C)n1ccnc1C1CCCN(c2ccncc2F)C1 (stereo not drawn) the screen gave -21.36%.

Result for Cc1[nH]ncc1C(=O)N1CCCC(c2ccn[nH]2)C1 (stereo not drawn) was -41.32% and -6.215%. With Cc1nc(C)n(CC2CCCN(Cc3nnc(C(C)(C)C)o3)C2)n1 (stereo not drawn) the screen gave -2.097% and 19.46%. CC(C)N1CC[C@@](C)(O)[C@H](n2ccc(=O)[nH]c2=O)C1 gave -27.04%. With COCCC(=O)N1CCn2c(COCC3CC3)cnc2C1C (stereo not drawn) the screen gave -21.1%. For O=C(NC1CCCC1)C1Cc2nc(-c3ccsc3)sc2N1CC1CC1 (stereo not drawn) the result was -26.37%. [H][C@]12CCCCN1CCC[C@H]2CN(C)Cc1nnc(CC)o1 read 33.66%. For CC(C)OCc1noc(C2CCCOC2)n1 (stereo not drawn) the result was 3.55%. Result for O[C@H]1CCN(CC2CCOC2)[C@H]1Cc1ccncc1 (stereo partly drawn) was 6.359% and 3.482%.

Cc1ccccc1CNC(Cn1cncn1)c1ccccc1 (stereo not drawn) gave 0.3273%. Result for CCN1CCN(C(=O)NCc2cc[nH]n2)CC1 was -8.152%. Result for c1ccc(-c2nnc(CN3CCOC(Cn4cccn4)C3)o2)cc1 (stereo not drawn) was 32.71%. With Cc1ccc(CNC(CN2CCN(C)CC2)c2ccccc2)cc1C (stereo not drawn) the screen gave 52.51%.

The first 4 entries again:

SMILES	Percent Effect
Cc1cccc(N(C)S(=O)(=O)c2cc(C(=O)O)cs2)c1	13.52%
CCc1nnsc1C(=O)N1CCOC(c2nc(C(C)C)n[nH]2)C1 (stereo not drawn)	4.445%
CC(O)CN1CCN(C(=O)c2ccnc(N(C)C)c2)CC1 (stereo not drawn)	-3.1% and -16.03%
CN(C)CC(=O)N1CCCC1c1cncc(Oc2ccc(F)cc2)n1 (stereo not drawn)	-23.38%